Results published in the supplement of paper PMC10849652.
This is one part of the list.

Chains of the proteins cited; added tags and fusions are not shown. Lines headed by an entry give the natural chain unless they say otherwise; changes in a name come on top.
UniProt O60701: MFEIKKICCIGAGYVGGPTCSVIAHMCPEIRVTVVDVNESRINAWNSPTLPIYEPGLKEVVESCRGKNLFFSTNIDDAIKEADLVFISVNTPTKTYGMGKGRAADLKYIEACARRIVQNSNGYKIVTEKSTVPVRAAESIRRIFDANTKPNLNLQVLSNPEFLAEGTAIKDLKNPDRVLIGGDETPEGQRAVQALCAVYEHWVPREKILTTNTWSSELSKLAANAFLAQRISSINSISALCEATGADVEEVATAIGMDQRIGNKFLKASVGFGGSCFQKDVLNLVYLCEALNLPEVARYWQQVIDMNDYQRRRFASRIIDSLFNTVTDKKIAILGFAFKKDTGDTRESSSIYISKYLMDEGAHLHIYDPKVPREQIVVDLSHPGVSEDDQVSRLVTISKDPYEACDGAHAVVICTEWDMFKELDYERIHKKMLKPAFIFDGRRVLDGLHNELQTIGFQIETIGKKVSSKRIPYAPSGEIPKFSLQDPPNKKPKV
UniProt P18206: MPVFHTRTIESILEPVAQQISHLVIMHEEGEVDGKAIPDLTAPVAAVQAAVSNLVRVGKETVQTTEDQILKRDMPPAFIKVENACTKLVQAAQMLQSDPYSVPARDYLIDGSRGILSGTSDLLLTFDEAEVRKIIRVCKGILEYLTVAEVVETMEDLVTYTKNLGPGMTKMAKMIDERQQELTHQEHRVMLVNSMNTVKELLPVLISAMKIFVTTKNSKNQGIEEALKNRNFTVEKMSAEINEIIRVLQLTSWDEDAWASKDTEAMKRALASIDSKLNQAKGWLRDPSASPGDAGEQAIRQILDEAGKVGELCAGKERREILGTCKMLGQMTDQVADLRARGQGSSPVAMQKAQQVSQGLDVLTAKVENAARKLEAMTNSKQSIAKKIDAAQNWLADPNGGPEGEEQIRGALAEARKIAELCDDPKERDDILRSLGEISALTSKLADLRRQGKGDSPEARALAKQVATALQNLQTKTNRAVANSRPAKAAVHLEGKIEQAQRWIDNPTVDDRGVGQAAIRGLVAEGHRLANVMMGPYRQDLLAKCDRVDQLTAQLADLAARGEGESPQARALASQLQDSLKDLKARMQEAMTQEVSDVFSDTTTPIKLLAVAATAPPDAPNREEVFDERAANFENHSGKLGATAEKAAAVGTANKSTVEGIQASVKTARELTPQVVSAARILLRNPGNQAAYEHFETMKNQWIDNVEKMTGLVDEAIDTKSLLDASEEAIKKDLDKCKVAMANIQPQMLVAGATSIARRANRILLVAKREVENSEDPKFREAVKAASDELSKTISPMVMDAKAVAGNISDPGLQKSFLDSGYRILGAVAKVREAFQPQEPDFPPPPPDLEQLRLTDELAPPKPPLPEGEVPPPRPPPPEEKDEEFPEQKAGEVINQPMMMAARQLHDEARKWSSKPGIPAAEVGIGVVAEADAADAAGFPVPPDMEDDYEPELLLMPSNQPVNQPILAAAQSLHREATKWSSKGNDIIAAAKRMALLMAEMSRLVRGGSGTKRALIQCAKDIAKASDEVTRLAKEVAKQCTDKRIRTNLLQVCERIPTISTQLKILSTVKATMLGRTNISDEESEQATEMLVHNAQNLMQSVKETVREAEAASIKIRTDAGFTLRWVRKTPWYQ
UniProt O75379: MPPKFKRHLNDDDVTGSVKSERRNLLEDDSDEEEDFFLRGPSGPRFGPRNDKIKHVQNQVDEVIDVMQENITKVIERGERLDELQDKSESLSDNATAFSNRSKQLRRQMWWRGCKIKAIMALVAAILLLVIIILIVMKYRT
UniProt O95071: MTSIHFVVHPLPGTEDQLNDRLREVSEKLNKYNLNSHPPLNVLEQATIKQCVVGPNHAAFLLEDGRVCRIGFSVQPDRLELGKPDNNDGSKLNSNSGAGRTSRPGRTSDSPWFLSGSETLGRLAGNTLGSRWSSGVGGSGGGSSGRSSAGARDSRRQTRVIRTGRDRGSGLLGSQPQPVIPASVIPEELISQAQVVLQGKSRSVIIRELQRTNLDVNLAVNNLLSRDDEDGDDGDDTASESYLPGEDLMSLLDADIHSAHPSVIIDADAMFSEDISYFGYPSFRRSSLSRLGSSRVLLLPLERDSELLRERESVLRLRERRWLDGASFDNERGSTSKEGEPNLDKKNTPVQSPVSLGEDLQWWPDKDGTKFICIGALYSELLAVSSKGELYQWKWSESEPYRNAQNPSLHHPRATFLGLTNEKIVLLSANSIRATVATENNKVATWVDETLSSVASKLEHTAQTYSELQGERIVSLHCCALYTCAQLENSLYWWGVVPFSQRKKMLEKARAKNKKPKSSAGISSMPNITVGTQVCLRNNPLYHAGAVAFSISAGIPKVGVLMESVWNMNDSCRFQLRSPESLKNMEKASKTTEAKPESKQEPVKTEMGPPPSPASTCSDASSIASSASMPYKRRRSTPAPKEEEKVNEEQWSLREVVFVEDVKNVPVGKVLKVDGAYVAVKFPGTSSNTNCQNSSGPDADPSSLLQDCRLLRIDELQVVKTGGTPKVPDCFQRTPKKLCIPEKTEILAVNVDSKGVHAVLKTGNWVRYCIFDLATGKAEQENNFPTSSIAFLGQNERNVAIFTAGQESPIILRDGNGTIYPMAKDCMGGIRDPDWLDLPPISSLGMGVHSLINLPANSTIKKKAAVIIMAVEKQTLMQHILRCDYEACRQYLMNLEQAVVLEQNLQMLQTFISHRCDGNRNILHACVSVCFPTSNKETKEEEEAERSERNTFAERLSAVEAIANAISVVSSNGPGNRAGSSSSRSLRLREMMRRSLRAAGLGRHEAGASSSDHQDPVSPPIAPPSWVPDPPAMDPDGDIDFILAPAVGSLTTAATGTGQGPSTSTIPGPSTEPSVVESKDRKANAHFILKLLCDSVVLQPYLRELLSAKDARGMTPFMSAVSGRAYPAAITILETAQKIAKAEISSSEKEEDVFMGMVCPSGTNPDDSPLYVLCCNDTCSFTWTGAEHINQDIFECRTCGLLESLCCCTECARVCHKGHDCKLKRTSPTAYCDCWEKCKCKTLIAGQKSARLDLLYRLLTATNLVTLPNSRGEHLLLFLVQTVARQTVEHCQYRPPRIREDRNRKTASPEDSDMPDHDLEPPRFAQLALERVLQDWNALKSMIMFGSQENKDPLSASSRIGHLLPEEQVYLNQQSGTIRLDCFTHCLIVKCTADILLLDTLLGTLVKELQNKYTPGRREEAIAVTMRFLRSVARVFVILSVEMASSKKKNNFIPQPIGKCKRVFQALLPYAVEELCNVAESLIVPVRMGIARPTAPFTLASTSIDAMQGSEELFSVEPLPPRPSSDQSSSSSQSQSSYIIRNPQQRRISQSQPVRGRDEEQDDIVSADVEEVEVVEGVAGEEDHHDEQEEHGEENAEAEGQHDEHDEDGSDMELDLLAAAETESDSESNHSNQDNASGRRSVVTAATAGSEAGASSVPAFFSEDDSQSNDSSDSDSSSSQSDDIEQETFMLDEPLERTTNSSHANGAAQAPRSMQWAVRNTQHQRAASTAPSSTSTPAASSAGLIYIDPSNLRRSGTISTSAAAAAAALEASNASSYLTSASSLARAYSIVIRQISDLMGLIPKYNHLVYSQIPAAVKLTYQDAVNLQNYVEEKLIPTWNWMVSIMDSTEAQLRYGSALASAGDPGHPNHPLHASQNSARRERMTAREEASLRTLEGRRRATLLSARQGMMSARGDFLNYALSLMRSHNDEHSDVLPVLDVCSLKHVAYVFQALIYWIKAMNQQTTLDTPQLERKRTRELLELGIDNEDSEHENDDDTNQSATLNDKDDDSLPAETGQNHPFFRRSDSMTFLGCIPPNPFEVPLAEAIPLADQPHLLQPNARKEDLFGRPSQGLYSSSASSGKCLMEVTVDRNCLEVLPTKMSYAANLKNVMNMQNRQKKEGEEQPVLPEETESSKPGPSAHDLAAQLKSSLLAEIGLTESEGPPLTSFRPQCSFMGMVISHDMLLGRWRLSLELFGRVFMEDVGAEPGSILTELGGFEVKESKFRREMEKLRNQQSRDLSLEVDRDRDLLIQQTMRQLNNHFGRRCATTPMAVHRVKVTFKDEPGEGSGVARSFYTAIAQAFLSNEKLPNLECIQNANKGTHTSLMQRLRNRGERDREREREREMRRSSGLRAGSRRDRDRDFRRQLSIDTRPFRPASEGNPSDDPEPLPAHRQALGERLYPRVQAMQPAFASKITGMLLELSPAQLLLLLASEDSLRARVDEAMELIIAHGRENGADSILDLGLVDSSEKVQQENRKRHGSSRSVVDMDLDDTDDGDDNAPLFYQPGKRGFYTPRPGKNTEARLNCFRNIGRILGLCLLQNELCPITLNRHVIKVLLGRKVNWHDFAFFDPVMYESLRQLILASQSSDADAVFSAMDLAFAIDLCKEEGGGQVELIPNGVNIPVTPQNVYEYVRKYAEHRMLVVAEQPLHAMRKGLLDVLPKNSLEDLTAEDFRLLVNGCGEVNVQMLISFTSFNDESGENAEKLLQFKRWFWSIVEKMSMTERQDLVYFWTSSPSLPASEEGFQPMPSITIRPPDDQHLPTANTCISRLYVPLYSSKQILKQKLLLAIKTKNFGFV
UniProt O14949: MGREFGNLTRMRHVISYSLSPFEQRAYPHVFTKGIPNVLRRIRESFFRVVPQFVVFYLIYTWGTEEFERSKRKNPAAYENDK
UniProt O94763, whole entry, looked up: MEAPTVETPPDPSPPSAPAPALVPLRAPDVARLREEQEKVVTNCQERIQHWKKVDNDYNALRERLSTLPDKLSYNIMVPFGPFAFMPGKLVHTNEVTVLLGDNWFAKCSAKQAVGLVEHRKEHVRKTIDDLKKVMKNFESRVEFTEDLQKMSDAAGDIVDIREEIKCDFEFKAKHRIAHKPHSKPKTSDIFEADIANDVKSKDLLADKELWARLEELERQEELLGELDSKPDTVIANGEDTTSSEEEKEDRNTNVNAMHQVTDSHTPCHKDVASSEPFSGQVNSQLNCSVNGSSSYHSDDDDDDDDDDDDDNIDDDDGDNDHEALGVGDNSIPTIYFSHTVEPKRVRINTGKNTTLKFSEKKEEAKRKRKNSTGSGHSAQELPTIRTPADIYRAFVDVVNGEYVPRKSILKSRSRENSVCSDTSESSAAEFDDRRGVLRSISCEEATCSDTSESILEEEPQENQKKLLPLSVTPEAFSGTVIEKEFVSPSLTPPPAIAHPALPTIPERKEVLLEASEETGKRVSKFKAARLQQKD
UniProt Q53GS9: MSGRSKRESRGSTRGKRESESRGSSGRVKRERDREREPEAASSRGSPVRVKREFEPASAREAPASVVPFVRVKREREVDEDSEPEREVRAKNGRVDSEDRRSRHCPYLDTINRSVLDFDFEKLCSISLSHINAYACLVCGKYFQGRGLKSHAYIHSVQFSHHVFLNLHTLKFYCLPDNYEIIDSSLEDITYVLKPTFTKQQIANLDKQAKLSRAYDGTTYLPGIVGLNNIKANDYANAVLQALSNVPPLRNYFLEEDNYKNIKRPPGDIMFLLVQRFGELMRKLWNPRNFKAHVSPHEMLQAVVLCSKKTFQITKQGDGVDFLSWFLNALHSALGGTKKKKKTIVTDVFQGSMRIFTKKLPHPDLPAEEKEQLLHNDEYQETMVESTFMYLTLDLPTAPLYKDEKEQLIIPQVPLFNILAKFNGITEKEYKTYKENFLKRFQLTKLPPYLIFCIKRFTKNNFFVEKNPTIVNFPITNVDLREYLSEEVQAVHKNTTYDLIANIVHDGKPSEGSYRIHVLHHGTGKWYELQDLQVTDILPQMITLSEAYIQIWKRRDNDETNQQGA
UniProt Q9Y5Z9: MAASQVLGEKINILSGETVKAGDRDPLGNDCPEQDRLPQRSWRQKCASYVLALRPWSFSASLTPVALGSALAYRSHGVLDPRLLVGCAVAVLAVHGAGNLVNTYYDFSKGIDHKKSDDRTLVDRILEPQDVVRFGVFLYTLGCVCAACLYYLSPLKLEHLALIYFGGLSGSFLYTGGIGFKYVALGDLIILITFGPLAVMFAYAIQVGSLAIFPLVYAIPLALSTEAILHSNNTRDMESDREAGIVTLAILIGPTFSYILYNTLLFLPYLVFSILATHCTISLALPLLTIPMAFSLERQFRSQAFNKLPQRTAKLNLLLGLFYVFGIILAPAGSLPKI
UniProt O94888: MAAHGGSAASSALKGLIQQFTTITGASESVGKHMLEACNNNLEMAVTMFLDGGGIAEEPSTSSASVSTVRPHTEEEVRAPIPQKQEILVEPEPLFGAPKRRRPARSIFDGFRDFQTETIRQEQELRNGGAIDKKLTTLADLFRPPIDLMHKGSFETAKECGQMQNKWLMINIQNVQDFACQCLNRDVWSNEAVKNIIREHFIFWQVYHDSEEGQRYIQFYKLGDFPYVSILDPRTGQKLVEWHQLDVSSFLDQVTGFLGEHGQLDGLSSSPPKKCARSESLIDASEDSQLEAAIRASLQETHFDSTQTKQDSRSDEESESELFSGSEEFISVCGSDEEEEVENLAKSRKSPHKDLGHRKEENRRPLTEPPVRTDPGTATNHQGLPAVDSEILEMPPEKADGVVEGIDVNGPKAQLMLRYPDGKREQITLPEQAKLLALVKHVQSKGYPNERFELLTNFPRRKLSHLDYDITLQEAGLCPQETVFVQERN

How the values were obtained:
Assay in all cases: log2 fold change, soluble protein after heating vs DMSO (PISA); higher = thermal stabilisation; K562 cells, 10 uM, 30 min; active = over 0.2 and 3.5 SD of the protein, either way, in both replicates (recomputed)
[1] = compound: COC1=CC=C(C=C1)CN2C=CC3=C2C=C(C=C3)C(=O)NO
In short: (§1)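 Soluble protein was quantified by TMTpro 16plex LC-MS/MS after channel sums were equalised. It was obtained as the supernatant after 21,000xg for 90 min from pooled aliquots of K562 cells (2×10^6 cells/mL, 10 μM compound, 30 min) heated for 3 min across 48°C-58°C and extracted in PBS with 0.5% NP-40 at 4°C. Thermal stability values are relative to control samples and come from duplicates. They are given as log2 fold changes.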

filanesib = compound: CON(C)C(=O)N1N=C(c2cc(F)ccc2F)S[C@@]1(CCCN)c1ccccc1 [filanesib]
In short: as §1

zotarolimus = compound: CO[C@H]1C[C@@H]2CC[C@@H](C)[C@@](O)(O2)C(=O)C(=O)N2CCCC[C@H]2C(=O)O[C@H]([C@H](C)C[C@@H]2CC[C@H](n3cnnn3)[C@H](OC)C2)CC(=O)[C@H](C)/C=C(\C)[C@@H](O)[C@@H](OC)C(=O)[C@H](C)C[C@H](C)/C=C/C=C/C=C/1C [zotarolimus]
In short: as §1

idasanutlin = compound: COc1cc(C(=O)O)ccc1NC(=O)[C@@H]1N[C@@H](CC(C)(C)C)[C@](C#N)(c2ccc(Cl)cc2F)[C@H]1c1cccc(Cl)c1F [idasanutlin]
In short: as §1

alisertib = compound: COc1cc(Nc2ncc3c(n2)-c2ccc(Cl)cc2C(c2c(F)cccc2OC)=NC3)ccc1C(=O)O [alisertib]
In short: as §1

[2] = compound: COc1cc2nc(-c3cc(F)ccc3O)nc(N[C@@H]3CNC[C@H]3C(C)(C)O)c2cc1OC
In short: as §1

gefitinib = compound: COc1cc2ncnc(Nc3ccc(F)c(Cl)c3)c2cc1OCCCN1CCOCC1 [gefitinib]
In short: as §1

[3] = compound: COc1cccc2cc(-c3nc([C@H]4CC[C@H](C(=O)O)CC4)n4ncnc(N)c34)[nH]c12
In short: as §1

lapatinib = compound: CS(=O)(=O)CCNCc1ccc(-c2ccc3ncnc(Nc4ccc(OCc5cccc(F)c5)c(Cl)c4)c3c2)o1 [lapatinib]
In short: as §1

pictilisib = compound: CS(=O)(=O)N1CCN(Cc2cc3nc(-c4cccc5[nH]ncc45)nc(N4CCOCC4)c3s2)CC1 [pictilisib]
In short: as §1

| Target | log2 fold change [1] | log2 fold change (filanesib) | log2 fold change (zotarolimus) | log2 fold change (idasanutlin) | log2 fold change (alisertib) | log2 fold change [2] | log2 fold change (gefitinib) | log2 fold change [3] | log2 fold change (lapatinib) | log2 fold change (pictilisib) |
| --- | --- | --- | --- | --- | --- | --- | --- | --- | --- | --- |
| UGDH (UniProt O60701) | inactive: 0.164 | inactive: 0.001 | inactive: 0.053 | inactive: -0.043 | inactive: 0.067 | inactive: 0.04 | inactive: 0.118 | inactive: 0.059 | inactive: -0.036 | inactive: 0.022 |
| UFD1 isoform 1 (UniProt Q92890) | active: 0.225 | inactive: -0.033 | inactive: -0.028 | inactive: -0.043 | inactive: -0.023 | inactive: -0.052 | inactive: -0.001 | inactive: 0.033 | inactive: 0.018 | inactive: -0.037 |
| UGGT2 (UniProt Q9NYU1) | inactive: -0.068 | inactive: 0.031 | inactive: -0.03 | inactive: 0.021 | inactive: -0.003 | inactive: -0.121 | inactive: 0.028 | inactive: 0 | inactive: 0.069 | inactive: 0.052 |
| VAMP7 (UniProt P51809) | inactive: 0.035 | inactive: -0.095 | inactive: -0.005 | inactive: -0.111 | inactive: -0.072 | inactive: 0.099 | inactive: 0.033 | inactive: 0.012 | inactive: -0.005 | inactive: -0.001 |
| UCK2 (UniProt Q9BZX2) | inactive: -0.09 | inactive: -0.002 | inactive: -0.019 | inactive: 0.008 | inactive: -0.035 | inactive: -0.006 | inactive: 0.033 | inactive: 0.065 | inactive: -0.01 | inactive: -0.03 |
| UBE3D (UniProt Q7Z6J8) | inactive: -0.005 | inactive: 0.08 | inactive: -0.033 | inactive: -0.009 | inactive: -0.088 | inactive: -0.022 | inactive: 0.035 | inactive: 0.009 | inactive: -0.069 | inactive: 0.139 |
| VCL (UniProt P18206) | inactive: 0.032 | inactive: -0.046 | inactive: -0.005 | inactive: -0.014 | inactive: -0.078 | inactive: -0.012 | inactive: -0.005 | inactive: 0.006 | inactive: -0.012 | inactive: -0.008 |
| VAMP4 (UniProt O75379) | inactive: -0.055 | inactive: -0.013 | inactive: -0.04 | inactive: 0 | inactive: -0.071 | inactive: 0.077 | inactive: 0.026 | inactive: 0.053 | inactive: -0.013 | inactive: 0.084 |
| UBR5 (UniProt O95071) | inactive: -0.001 | inactive: 0.138 | inactive: 0.011 | inactive: 0.072 | inactive: 0.007 | inactive: -0.029 | inactive: -0.049 | inactive: -0.05 | inactive: 0.069 | inactive: -0.008 |
| UIMC1 (UniProt Q96RL1) | inactive: -0.177 | inactive: 0.228 | inactive: 0.007 | inactive: 0.118 | inactive: -0.018 | inactive: 0.082 | inactive: 0.001 | inactive: 0.053 | inactive: 0.049 | inactive: -0.049 |
| VAT1 (UniProt Q99536) | inactive: 0.031 | inactive: -0.037 | inactive: 0.023 | inactive: -0.003 | inactive: -0.037 | inactive: 0.016 | inactive: 0.019 | inactive: 0.078 | inactive: 0.046 | inactive: -0.064 |
| UBQLN2 (UniProt Q9UHD9) | inactive: 0.009 | inactive: -0.078 | inactive: 0.039 | inactive: -0.043 | inactive: -0.065 | inactive: -0.081 | inactive: 0.013 | inactive: 0.084 | inactive: 0.073 | inactive: -0.104 |
| UQCRQ (UniProt O14949) | inactive: -0.008 | inactive: -0.033 | inactive: -0.027 | inactive: -0.012 | inactive: -0.136 | inactive: -0.027 | inactive: 0.004 | inactive: 0.065 | inactive: 0 | inactive: 0.081 |
| UNC13D isoform 3 (UniProt Q70J99) | inactive: -0.026 | inactive: 0.245 | inactive: 0.142 | inactive: 0.122 | inactive: -0.245 | inactive: -0.057 | inactive: 0.192 | inactive: -0.283 | inactive: 0.05 | inactive: 0.068 |
| UHRF1BP1 (UniProt Q6BDS2) | inactive: -0.025 | inactive: 0.079 | inactive: 0.161 | inactive: -0.029 | inactive: -0.033 | inactive: 0.104 | inactive: 0.045 | inactive: 0.037 | inactive: 0.038 | inactive: 0.032 |
| UHRF1BP1L (UniProt A0JNW5) | inactive: -0.027 | inactive: 0.038 | inactive: 0.093 | inactive: -0.073 | inactive: -0.08 | inactive: 0.179 | inactive: 0.05 | inactive: 0.034 | inactive: -0.006 | inactive: -0.046 |
| URGCP (UniProt Q8TCY9) | inactive: -0.033 | inactive: 0.161 | inactive: 0.039 | inactive: 0.049 | – | inactive: 0.102 | inactive: -0.161 | – | inactive: 0.002 | inactive: 0.015 |
| UQCC2 (UniProt Q9BRT2) | inactive: 0.02 | inactive: -0.067 | inactive: 0.011 | inactive: 0.031 | inactive: -0.023 | inactive: -0.039 | inactive: -0.012 | inactive: -0.006 | inactive: -0.008 | inactive: 0.044 |
| USP32 (UniProt Q8NFA0) | inactive: -0.268 | inactive: 0.103 | inactive: 0.066 | inactive: 0.035 | – | inactive: 0.07 | inactive: -0.062 | – | inactive: 0.042 | inactive: 0.223 |
| URI1 isoform 4 (UniProt O94763) | inactive: 0.168 | inactive: -0.295 | inactive: -0.199 | inactive: -0.045 | – | – | inactive: 0.125 | – | – | inactive: 0.006 |
| UTP15 (UniProt Q8TED0) | inactive: -0.078 | inactive: 0.438 | inactive: 0.003 | inactive: 0.167 | inactive: -0.04 | inactive: -0.003 | inactive: -0.056 | inactive: -0.103 | inactive: 0.139 | inactive: -0.115 |
| UQCRC2 (UniProt P22695) | inactive: 0.066 | inactive: -0.176 | inactive: -0.023 | inactive: -0.089 | inactive: -0.039 | inactive: 0.018 | inactive: 0 | inactive: 0.031 | inactive: -0.006 | inactive: 0.006 |
| USP5 (UniProt P45974) | inactive: -0.011 | inactive: -0.015 | inactive: 0.037 | inactive: -0.058 | inactive: -0.043 | inactive: 0.13 | inactive: 0.027 | inactive: 0.049 | inactive: 0.101 | inactive: 0.035 |
| UEVLD (UniProt Q8IX04) | inactive: -0.139 | inactive: -0.124 | inactive: -0.256 | inactive: -0.175 | inactive: 0.124 | – | inactive: -0.036 | inactive: 0.154 | – | inactive: -0.178 |
| USP39 (UniProt Q53GS9) | inactive: -0.039 | inactive: 0.107 | inactive: -0.026 | inactive: 0.089 | inactive: -0.02 | inactive: 0.064 | inactive: 0.009 | inactive: -0.008 | inactive: 0.027 | inactive: 0.009 |
| UBIAD1 (UniProt Q9Y5Z9) | inactive: -0.063 | inactive: -0.038 | inactive: -0.246 | inactive: -0.039 | inactive: -0.054 | inactive: -0.008 | inactive: 0.077 | inactive: 0.013 | inactive: 0.082 | inactive: 0.103 |
| UBXN7 (UniProt O94888) | inactive: 0 | inactive: -0.021 | inactive: 0.051 | inactive: -0.083 | inactive: -0.021 | inactive: 0.001 | inactive: 0.002 | inactive: 0.024 | inactive: 0.019 | inactive: -0.014 |
| UPF2 (UniProt Q9HAU5) | inactive: -0.037 | inactive: 0.352 | inactive: 0.051 | inactive: 0.128 | inactive: 0 | inactive: 0.105 | inactive: 0.008 | inactive: -0.159 | inactive: 0.059 | inactive: -0.023 |

Look-ups from the entries so far.
USP5 (UniProt P45974) | log2 fold change (filanesib): inactive: -0.015
URGCP (UniProt Q8TCY9) | log2 fold change (filanesib): inactive: 0.161

2 neighbouring records out of the list so far, for reference:

| Target | log2 fold change [1] | log2 fold change (filanesib) | log2 fold change (zotarolimus) | log2 fold change (idasanutlin) | log2 fold change (alisertib) | log2 fold change [2] | log2 fold change (gefitinib) | log2 fold change [3] | log2 fold change (lapatinib) | log2 fold change (pictilisib) |
| --- | --- | --- | --- | --- | --- | --- | --- | --- | --- | --- |
| VAMP7 (UniProt P51809) | inactive: 0.035 | inactive: -0.095 | inactive: -0.005 | inactive: -0.111 | inactive: -0.072 | inactive: 0.099 | inactive: 0.033 | inactive: 0.012 | inactive: -0.005 | inactive: -0.001 |
| UCK2 (UniProt Q9BZX2) | inactive: -0.09 | inactive: -0.002 | inactive: -0.019 | inactive: 0.008 | inactive: -0.035 | inactive: -0.006 | inactive: 0.033 | inactive: 0.065 | inactive: -0.01 | inactive: -0.03 |
